Results: publication PMC4307906

The chains behind the UniProt entries cited, without tags or fusion partners. Residues count along the entry.
UniProt P16422, 24-314: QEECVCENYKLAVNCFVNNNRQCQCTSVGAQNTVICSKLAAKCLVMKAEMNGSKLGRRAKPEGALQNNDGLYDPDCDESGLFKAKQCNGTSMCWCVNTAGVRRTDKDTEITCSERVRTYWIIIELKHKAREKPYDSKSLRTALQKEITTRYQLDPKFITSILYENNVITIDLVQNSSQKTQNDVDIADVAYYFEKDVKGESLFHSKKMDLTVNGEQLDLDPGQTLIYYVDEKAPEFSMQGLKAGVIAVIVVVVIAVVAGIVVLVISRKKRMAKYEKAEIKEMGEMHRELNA

How the values were obtained:
EpCAM on MCF-7 cells = EpCAM on MCF-7 cells (UniProt P16422); test: flow cytometry and fluorescence microscopy on cells; conditions: 200 nM aptamer, protein on the cell surface
EpCAM on WERI-Rb1 cells = EpCAM on WERI-Rb1 cells (UniProt P16422); test: as above; conditions: 200 nM aptamer, protein on the cell surface
[1] = 2'-OMe pyrimidines, synthetic backbone

Sequence | binding result (EpCAM on MCF-7 cells; binding decreased by blocking with EpCAM antibody (cell line of blocking test not stated), 2'-F pyrimidines) | binding result (EpCAM on WERI-Rb1 cells; weaker than on MCF-7, 2'-F pyrimidines) | binding result (EpCAM on MCF-7 cells; [1]) | binding result (EpCAM on WERI-Rb1 cells; [1])
GCGACUGGUUACCCGGUCG [EpApt (EpDT3)] | binds | binds | – | –
GCGACUGGUUACCCGGUCG [ScrApt (ScrDT3)] | – | – | no binding | no binding

Construct, isoform or probe ends are uncertain for at least one entry. Results from cells or extracts need not show a direct contact. Negatives hold for the conditions tested.
